{"source": "patent EP0584223B1", "about": "“NOVEL IMMUNOSUPPRESSIVE COMPOUNDS” (VERTEX PHARMACEUTICALS INCORPORATED, priority 1991, dated 1992)", "system": "T-cell hybridoma", "experiment": "Table 3 assay 3: apoptosis, activation-induced (anti-CD3) cell death", "assay_type": "cell-based", "conditions": "at 1µg/ml; inhibition of activation-induced cell death, viable cell count", "note": "For at least one compound, name, drawing or mass did not settle the structure.", "data": [{"compound": "C=CC[C@@H]1/C=C(\\C)C[C@H](C)C[C@H](OC)[C@H]2O[C@@](O)(C(=O)C(=O)N3CCCC[C@H]3C(=O)O[C@H](/C(C)=C/[C@@H]3CC[C@@H](O)[C@H](OC)C3)[C@H](C)[C@@H](O)CC1=O)[C@H](C)C[C@@H]2OC", "note": "[FK-506]", "values": [{"measurement": "Apoptosis", "value": "Blocks at 1µg/ml"}]}]}
